In the supplement of paper PMC6078165:
± gives the standard deviation of the averaged measurements. The reference is the same well before dosing, and untreated signal decays as well.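 Labels refer to human fibroblasts, largely primary: uterine (C12385, HUF), lung (H6013), bone (Hs27A), adrenal (HADF), skin (WS1), plus mammary HMF and breast cancer-associated Hs343T. Cancer lines are basal-like or mesenchymal-like triple-negative breast cancer. The paper counts as hits responses shifting over 3x the replicate standard deviation. The tissue of the other fibroblasts is not given here.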

Test system: Hs578T
Experiment: relative JC-1 red fluorescence (viability) vs pre-drug, coculture with fibroblast (fraction); higher = more viable cancer cells
Method: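 JC-1 labelled TNBC cells cocultured 1:1 (1,500 cells each) with CellTrace Violet stained primary or stromal fibroblasts in 384-well plates in FluoroBrite medium, treated with one of 42 anticancer drugs at 0.1, 1, 10 or 100 uM. JC-1 red fluorescence (mitochondrial integrity in cancer cells only) was read by plate reader every 8 h for 72 h. Values are normalised to each well's pre-drug value. The stock of one drug was tenfold lower, so its dose labels may be too high.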

N#Cc1ccc(C(c2ccc(C#N)cc2)n2cncn2)cc1 [Letrozole]
relative JC-1 red fluorescence
Conditions	8 h	16 h	24 h	32 h	40 h	48 h	56 h	64 h	72 h
0.1 µM	0.864 ± 0.047	0.765 ± 0.012	0.7261 ± 0.0035	0.712 ± 0.011	0.661 ± 0.018	0.627 ± 0.016	0.61 ± 0.03	0.561 ± 0.023	0.543 ± 0.03
1 µM	0.8763 ± 0.0011	0.785 ± 0.015	0.749 ± 0.021	0.721 ± 0.023	0.673 ± 0.02	0.637 ± 0.018	0.614 ± 0.011	0.577 ± 0.018	0.555 ± 0.0077

relative JC-1 red fluorescence
Conditions	8 h	16 h	24 h	32 h	40 h	48 h	56 h	64 h	72 h
0.1 µM, coculture fibroblast: C12385	0.839 ± 0.027	0.7112 ± 0.0068	0.688 ± 0.034	0.582 ± 0.024	0.522 ± 0.025	0.483 ± 0.021	0.453 ± 0.034	0.441 ± 0.039	0.44 ± 0.042
0.1 µM, coculture fibroblast: H6013	0.829 ± 0.025	0.801 ± 0.05	0.761 ± 0.053	0.732 ± 0.062	0.7 ± 0.058	0.687 ± 0.052	0.668 ± 0.054	0.663 ± 0.049	0.637 ± 0.048
0.1 µM, coculture fibroblast: H6019	0.755 ± 0.0099	0.673 ± 0.01	0.624 ± 0.0086	0.5265 ± 0.0052	0.479 ± 0.02	0.455 ± 0.021	0.422 ± 0.021	0.412 ± 0.017	0.392 ± 0.02
0.1 µM, coculture fibroblast: H6076	0.8988 ± 0.0054	0.8159 ± 0.00096	0.752 ± 0.031	0.725 ± 0.04	0.679 ± 0.057	0.665 ± 0.066	0.646 ± 0.072	0.64 ± 0.08	0.638 ± 0.089
0.1 µM, coculture fibroblast: H6231	0.9048 ± 0.0039	0.7825 ± 0.0031	0.707 ± 0.0083	0.662 ± 0.02	0.592 ± 0.015	0.559 ± 0.015	0.507 ± 0.015	0.488 ± 0.015	0.466 ± 0.011
0.1 µM, coculture fibroblast: HADF	0.841 ± 0.031	0.724 ± 0.051	0.635 ± 0.016	0.57 ± 0.0073	0.5216 ± 0.0049	0.4924 ± 0.0044	0.459 ± 0.0092	0.447 ± 0.0054	0.426 ± 0.009
0.1 µM, coculture fibroblast: HCFa	0.828 ± 0.021	0.76 ± 0.0095	0.707 ± 0.038	0.657 ± 0.058	0.602 ± 0.065	0.579 ± 0.071	0.553 ± 0.079	0.531 ± 0.086	0.495 ± 0.093
0.1 µM, coculture fibroblast: HCPF	0.9401 ± 0.009	0.837 ± 0.0091	0.8 ± 0.018	0.769 ± 0.023	0.695 ± 0.004	0.664 ± 0.012	0.639 ± 0.014	0.61 ± 0.015	0.592 ± 0.015
0.1 µM, coculture fibroblast: HHSteC	0.873 ± 0.015	0.767 ± 0.027	0.702 ± 0.049	0.636 ± 0.06	0.577 ± 0.066	0.543 ± 0.065	0.517 ± 0.067	0.492 ± 0.067	0.461 ± 0.065
0.1 µM, coculture fibroblast: HMF	0.891 ± 0.014	0.79 ± 0.036	0.72 ± 0.029	0.69 ± 0.026	0.629 ± 0.03	0.592 ± 0.022	0.559 ± 0.015	0.542 ± 0.0085	0.5305 ± 0.0018
0.1 µM, coculture fibroblast: HPFa	0.896 ± 0.044	0.789 ± 0.065	0.709 ± 0.076	0.64 ± 0.081	0.589 ± 0.085	0.54 ± 0.083	0.496 ± 0.087	0.476 ± 0.09	0.433 ± 0.087
0.1 µM, coculture fibroblast: HUF	0.86 ± 0.017	0.724 ± 0.021	0.679 ± 0.042	0.568 ± 0.041	0.507 ± 0.054	0.473 ± 0.065	0.436 ± 0.067	0.425 ± 0.066	0.415 ± 0.069
0.1 µM, coculture fibroblast: Hs27A	0.889 ± 0.025	0.775 ± 0.03	0.724 ± 0.043	0.667 ± 0.029	0.608 ± 0.036	0.584 ± 0.028	0.538 ± 0.025	0.523 ± 0.022	0.473 ± 0.024
0.1 µM, coculture fibroblast: Hs343T	0.913 ± 0.012	0.801 ± 0.021	0.747 ± 0.013	0.7225 ± 0.0036	0.6485 ± 0.0054	0.6215 ± 0.0057	0.579 ± 0.0062	0.55 ± 0.0078	0.54901 ± 0.00023
0.1 µM, coculture fibroblast: WS1	0.836 ± 0.019	0.718 ± 0.031	0.647 ± 0.056	0.55 ± 0.046	0.492 ± 0.043	0.468 ± 0.038	0.434 ± 0.04	0.428 ± 0.044	0.417 ± 0.043
1 µM, coculture fibroblast: C12385	0.84 ± 0.025	0.731 ± 0.038	0.712 ± 0.044	0.627 ± 0.048	0.569 ± 0.045	0.541 ± 0.044	0.522 ± 0.042	0.513 ± 0.038	0.514 ± 0.039
1 µM, coculture fibroblast: H6013	0.9283 ± 0.0069	0.855 ± 0.042	0.8 ± 0.052	0.766 ± 0.06	0.716 ± 0.063	0.698 ± 0.065	0.669 ± 0.071	0.653 ± 0.067	0.613 ± 0.062
1 µM, coculture fibroblast: H6019	0.774 ± 0.0086	0.669 ± 0.027	0.63 ± 0.064	0.529 ± 0.081	0.492 ± 0.09	0.464 ± 0.092	0.43 ± 0.091	0.406 ± 0.086	0.38 ± 0.083
1 µM, coculture fibroblast: H6076	0.8546 ± 0.0046	0.7415 ± 0.0033	0.719 ± 0.046	0.712 ± 0.059	0.683 ± 0.094	0.697 ± 0.096	0.698 ± 0.12	0.706 ± 0.14	0.726 ± 0.14
1 µM, coculture fibroblast: H6231	0.909 ± 0.02	0.812 ± 0.025	0.734 ± 0.051	0.705 ± 0.067	0.65 ± 0.081	0.63 ± 0.09	0.595 ± 0.1	0.569 ± 0.098	0.556 ± 0.098
1 µM, coculture fibroblast: HADF	0.87698 ± 9.9e-06	0.794 ± 0.0087	0.7444 ± 0.00078	0.6966 ± 0.0067	0.658 ± 0.017	0.636 ± 0.0068	0.6 ± 0.011	0.591 ± 0.015	0.561 ± 0.019
1 µM, coculture fibroblast: HCFa	0.865 ± 0.036	0.7745 ± 0.0032	0.7347 ± 0.0044	0.685 ± 0.027	0.62 ± 0.041	0.599 ± 0.055	0.563 ± 0.055	0.548 ± 0.069	0.509 ± 0.078
1 µM, coculture fibroblast: HCPF	0.925 ± 0.037	0.837 ± 0.039	0.773 ± 0.03	0.736 ± 0.013	0.672 ± 0.0078	0.64028 ± 0.00016	0.616 ± 0.0091	0.574 ± 0.022	0.548 ± 0.017
1 µM, coculture fibroblast: HHSteC	0.861 ± 0.052	0.773 ± 0.074	0.674 ± 0.04	0.611 ± 0.033	0.543 ± 0.026	0.505 ± 0.017	0.468 ± 0.019	0.444 ± 0.013	0.401 ± 0.014
1 µM, coculture fibroblast: HMF	0.8493 ± 0.0081	0.751 ± 0.013	0.682 ± 0.012	0.666 ± 0.02	0.607 ± 0.02	0.579 ± 0.031	0.544 ± 0.039	0.528 ± 0.043	0.52 ± 0.045
1 µM, coculture fibroblast: HPFa	0.922 ± 0.027	0.839 ± 0.016	0.772 ± 0.062	0.699 ± 0.1	0.65 ± 0.14	0.612 ± 0.16	0.562 ± 0.17	0.533 ± 0.18	0.484 ± 0.18
1 µM, coculture fibroblast: HUF	0.861 ± 0.019	0.759 ± 0.012	0.743 ± 0.026	0.632 ± 0.017	0.567 ± 0.025	0.529 ± 0.03	0.504 ± 0.035	0.49 ± 0.037	0.485 ± 0.034
1 µM, coculture fibroblast: Hs27A	0.885 ± 0.015	0.828 ± 0.032	0.776 ± 0.063	0.736 ± 0.076	0.668 ± 0.088	0.649 ± 0.085	0.608 ± 0.088	0.596 ± 0.088	0.545 ± 0.09
1 µM, coculture fibroblast: Hs343T	0.888 ± 0.018	0.775 ± 0.0052	0.694 ± 0.037	0.669 ± 0.055	0.605 ± 0.077	0.574 ± 0.088	0.536 ± 0.094	0.522 ± 0.11	0.523 ± 0.12
1 µM, coculture fibroblast: WS1	0.8014 ± 0.0019	0.683 ± 0.017	0.64 ± 0.045	0.539 ± 0.041	0.478 ± 0.056	0.457 ± 0.062	0.432 ± 0.067	0.435 ± 0.079	0.436 ± 0.084
